Measurements: paper PMC5291280
No constants are given. Whether binding was seen depends on the method and setting. Binding seen in cells or lysates may run through a third protein. Some binding calls cover weakened binding; strength is not graded here. For some assays here: Sequences can lack the tags named with a protein.

Sequences of proteins named here, by UniProt entry; tags and fusion partners are left off.
UniProt P26196: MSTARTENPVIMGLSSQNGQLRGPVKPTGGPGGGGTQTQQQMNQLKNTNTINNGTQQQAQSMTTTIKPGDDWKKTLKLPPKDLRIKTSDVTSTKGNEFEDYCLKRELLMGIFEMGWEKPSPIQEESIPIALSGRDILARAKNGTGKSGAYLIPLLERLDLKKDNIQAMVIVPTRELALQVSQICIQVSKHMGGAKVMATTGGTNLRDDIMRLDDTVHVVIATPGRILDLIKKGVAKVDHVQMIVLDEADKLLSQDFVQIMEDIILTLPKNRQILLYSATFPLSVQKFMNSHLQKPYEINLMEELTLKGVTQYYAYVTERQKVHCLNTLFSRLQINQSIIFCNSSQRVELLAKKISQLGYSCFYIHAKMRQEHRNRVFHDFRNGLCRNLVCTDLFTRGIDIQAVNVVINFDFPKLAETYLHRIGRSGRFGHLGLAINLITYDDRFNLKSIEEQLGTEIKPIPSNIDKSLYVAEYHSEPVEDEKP
UniProt Q8IZH2: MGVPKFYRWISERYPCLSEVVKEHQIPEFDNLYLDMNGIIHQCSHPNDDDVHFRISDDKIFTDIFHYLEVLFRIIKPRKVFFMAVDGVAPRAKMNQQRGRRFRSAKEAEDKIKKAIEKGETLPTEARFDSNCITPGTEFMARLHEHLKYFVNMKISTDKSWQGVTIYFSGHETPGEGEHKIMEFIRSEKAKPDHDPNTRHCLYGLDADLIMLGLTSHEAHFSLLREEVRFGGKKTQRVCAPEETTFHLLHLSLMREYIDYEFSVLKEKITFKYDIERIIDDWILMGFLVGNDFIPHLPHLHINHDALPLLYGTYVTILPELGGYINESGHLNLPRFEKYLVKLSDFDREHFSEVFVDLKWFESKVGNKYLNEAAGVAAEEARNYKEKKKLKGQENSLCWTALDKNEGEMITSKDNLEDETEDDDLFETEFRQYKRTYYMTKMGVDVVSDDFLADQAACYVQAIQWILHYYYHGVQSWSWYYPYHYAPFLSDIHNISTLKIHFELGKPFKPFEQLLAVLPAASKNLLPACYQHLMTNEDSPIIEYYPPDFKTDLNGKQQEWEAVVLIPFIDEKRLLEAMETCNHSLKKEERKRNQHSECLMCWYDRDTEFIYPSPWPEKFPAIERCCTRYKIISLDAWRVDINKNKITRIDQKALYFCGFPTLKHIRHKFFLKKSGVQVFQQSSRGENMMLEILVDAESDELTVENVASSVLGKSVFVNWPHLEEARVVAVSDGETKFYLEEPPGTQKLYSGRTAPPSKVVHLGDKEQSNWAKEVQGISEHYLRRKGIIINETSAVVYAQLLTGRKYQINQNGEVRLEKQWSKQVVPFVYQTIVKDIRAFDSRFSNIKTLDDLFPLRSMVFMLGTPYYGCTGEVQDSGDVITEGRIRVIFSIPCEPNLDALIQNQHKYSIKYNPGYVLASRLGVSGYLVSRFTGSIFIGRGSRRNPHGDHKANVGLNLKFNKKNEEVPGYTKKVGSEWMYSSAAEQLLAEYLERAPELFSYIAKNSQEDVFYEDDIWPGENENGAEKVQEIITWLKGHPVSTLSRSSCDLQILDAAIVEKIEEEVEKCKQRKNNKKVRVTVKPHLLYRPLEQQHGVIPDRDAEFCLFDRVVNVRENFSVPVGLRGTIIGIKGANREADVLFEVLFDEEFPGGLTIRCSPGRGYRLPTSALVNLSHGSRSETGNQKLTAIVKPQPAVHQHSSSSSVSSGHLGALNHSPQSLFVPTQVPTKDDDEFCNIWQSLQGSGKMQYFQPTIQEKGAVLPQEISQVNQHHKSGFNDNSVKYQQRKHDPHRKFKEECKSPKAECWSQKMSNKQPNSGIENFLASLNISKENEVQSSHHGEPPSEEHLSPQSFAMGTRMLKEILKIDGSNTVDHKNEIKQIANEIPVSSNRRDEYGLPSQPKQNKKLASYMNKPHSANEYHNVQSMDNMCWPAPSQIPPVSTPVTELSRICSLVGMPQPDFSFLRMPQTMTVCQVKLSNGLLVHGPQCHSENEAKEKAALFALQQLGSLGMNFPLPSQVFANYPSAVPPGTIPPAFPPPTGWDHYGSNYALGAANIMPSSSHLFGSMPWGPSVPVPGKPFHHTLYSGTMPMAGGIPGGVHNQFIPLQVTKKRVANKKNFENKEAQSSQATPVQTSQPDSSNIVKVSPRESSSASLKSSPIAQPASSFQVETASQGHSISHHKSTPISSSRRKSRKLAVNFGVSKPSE

T1: FLAG-4E-T (4E-Transporter, full length) (human) (UniProt Q9NRA8)
T1 sequence: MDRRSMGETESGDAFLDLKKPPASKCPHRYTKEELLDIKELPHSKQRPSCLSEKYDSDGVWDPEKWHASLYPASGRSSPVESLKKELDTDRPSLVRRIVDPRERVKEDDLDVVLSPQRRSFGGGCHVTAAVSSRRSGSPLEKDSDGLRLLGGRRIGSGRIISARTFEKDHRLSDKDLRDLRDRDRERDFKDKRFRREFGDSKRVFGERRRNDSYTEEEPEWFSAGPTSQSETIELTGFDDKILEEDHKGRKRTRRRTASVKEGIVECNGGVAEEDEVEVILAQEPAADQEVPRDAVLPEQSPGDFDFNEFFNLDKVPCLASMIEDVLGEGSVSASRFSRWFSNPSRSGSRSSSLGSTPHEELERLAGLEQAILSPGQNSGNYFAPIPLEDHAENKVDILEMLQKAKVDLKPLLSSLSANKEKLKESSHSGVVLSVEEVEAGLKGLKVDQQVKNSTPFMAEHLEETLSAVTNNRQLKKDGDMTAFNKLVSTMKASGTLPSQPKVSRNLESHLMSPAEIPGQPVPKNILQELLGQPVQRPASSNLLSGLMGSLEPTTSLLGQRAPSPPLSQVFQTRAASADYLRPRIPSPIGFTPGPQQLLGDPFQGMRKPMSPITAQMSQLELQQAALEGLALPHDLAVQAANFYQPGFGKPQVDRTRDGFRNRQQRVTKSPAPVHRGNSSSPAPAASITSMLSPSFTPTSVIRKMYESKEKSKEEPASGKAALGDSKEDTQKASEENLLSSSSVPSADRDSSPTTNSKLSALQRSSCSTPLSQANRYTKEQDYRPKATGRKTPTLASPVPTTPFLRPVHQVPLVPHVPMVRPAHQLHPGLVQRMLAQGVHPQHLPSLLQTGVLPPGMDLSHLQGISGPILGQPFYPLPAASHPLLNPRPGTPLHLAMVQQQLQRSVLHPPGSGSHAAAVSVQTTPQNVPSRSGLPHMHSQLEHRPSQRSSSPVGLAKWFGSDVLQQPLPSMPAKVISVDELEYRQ

T2: UNR (CSDE1), endogenous (human (endogenous in HEK293T)) (UniProt O75534)
T2 sequence: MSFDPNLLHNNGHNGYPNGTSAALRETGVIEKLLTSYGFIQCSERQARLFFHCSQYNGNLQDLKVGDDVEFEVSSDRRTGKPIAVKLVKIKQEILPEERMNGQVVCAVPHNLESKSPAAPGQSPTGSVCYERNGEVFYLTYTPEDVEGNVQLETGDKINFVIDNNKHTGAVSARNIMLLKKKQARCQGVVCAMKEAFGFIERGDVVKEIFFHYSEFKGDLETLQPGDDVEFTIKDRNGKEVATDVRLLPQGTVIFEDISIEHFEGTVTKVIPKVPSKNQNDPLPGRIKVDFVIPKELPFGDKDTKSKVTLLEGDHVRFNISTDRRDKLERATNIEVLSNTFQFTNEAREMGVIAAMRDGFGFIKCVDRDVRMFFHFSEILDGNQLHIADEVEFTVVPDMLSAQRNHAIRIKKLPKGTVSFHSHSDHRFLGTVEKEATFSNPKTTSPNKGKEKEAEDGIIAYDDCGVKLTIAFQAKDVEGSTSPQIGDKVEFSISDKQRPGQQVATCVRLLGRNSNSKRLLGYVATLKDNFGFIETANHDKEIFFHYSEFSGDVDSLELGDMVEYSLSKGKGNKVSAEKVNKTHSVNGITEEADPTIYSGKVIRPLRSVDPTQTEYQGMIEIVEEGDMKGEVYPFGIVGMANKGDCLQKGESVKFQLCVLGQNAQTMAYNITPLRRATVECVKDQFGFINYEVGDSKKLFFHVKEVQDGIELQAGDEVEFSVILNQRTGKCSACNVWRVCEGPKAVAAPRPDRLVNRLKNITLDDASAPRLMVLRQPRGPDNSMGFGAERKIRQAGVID

T3: FLAG-UNR (human) (UniProt O75534)
T3 sequence: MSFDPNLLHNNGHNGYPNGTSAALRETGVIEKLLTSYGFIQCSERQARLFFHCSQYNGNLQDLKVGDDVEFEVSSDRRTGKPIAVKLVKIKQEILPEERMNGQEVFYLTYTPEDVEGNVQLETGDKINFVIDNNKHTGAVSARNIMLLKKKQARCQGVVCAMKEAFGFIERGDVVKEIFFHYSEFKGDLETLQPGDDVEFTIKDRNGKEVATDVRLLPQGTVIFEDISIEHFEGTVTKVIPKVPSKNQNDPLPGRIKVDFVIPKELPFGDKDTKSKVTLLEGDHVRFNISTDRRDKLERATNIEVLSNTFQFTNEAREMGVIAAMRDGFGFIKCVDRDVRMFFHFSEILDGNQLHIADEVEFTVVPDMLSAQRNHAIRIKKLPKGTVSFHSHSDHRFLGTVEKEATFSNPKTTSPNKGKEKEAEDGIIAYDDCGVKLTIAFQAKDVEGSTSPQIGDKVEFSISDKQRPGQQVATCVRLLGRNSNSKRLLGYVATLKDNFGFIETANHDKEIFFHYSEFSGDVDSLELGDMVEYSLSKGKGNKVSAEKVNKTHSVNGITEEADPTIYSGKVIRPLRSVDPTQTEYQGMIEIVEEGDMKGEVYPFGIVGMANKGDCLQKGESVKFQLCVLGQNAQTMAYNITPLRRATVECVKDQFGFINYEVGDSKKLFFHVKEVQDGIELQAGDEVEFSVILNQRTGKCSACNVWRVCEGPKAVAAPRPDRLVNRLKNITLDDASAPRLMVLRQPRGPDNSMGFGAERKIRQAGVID

T4: FLAG-UNRΔC (UNR1-744) (human) (UniProt O75534)
T4 sequence: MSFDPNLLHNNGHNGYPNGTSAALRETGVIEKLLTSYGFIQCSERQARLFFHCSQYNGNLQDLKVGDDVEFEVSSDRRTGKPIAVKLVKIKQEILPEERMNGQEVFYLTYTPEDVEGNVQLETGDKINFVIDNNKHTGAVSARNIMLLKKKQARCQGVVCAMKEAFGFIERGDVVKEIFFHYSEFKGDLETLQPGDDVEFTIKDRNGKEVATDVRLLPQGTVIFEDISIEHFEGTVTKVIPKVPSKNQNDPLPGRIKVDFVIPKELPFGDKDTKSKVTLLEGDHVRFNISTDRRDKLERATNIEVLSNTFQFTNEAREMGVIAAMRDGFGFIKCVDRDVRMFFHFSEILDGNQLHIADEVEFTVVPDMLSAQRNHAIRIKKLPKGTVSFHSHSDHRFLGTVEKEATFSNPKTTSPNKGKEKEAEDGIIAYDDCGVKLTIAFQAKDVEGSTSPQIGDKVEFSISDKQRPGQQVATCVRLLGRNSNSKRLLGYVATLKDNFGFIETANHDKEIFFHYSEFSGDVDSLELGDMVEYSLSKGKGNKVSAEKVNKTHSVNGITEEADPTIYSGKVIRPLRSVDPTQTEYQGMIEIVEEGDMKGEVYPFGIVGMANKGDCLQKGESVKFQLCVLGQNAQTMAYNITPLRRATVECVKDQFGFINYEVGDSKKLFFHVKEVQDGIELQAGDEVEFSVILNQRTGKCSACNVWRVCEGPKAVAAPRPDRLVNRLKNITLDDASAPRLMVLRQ

B1: 4E-T, endogenous (protein, UniProt Q9NRA8 1-985)
chain: MDRRSMGETESGDAFLDLKKPPASKCPHRYTKEELLDIKELPHSKQRPSCLSEKYDSDGVWDPEKWHASLYPASGRSSPVESLKKELDTDRPSLVRRIVDPRERVKEDDLDVVLSPQRRSFGGGCHVTAAVSSRRSGSPLEKDSDGLRLLGGRRIGSGRIISARTFEKDHRLSDKDLRDLRDRDRERDFKDKRFRREFGDSKRVFGERRRNDSYTEEEPEWFSAGPTSQSETIELTGFDDKILEEDHKGRKRTRRRTASVKEGIVECNGGVAEEDEVEVILAQEPAADQEVPRDAVLPEQSPGDFDFNEFFNLDKVPCLASMIEDVLGEGSVSASRFSRWFSNPSRSGSRSSSLGSTPHEELERLAGLEQAILSPGQNSGNYFAPIPLEDHAENKVDILEMLQKAKVDLKPLLSSLSANKEKLKESSHSGVVLSVEEVEAGLKGLKVDQQVKNSTPFMAEHLEETLSAVTNNRQLKKDGDMTAFNKLVSTMKASGTLPSQPKVSRNLESHLMSPAEIPGQPVPKNILQELLGQPVQRPASSNLLSGLMGSLEPTTSLLGQRAPSPPLSQVFQTRAASADYLRPRIPSPIGFTPGPQQLLGDPFQGMRKPMSPITAQMSQLELQQAALEGLALPHDLAVQAANFYQPGFGKPQVDRTRDGFRNRQQRVTKSPAPVHRGNSSSPAPAASITSMLSPSFTPTSVIRKMYESKEKSKEEPASGKAALGDSKEDTQKASEENLLSSSSVPSADRDSSPTTNSKLSALQRSSCSTPLSQANRYTKEQDYRPKATGRKTPTLASPVPTTPFLRPVHQVPLVPHVPMVRPAHQLHPGLVQRMLAQGVHPQHLPSLLQTGVLPPGMDLSHLQGISGPILGQPFYPLPAASHPLLNPRPGTPLHLAMVQQQLQRSVLHPPGSGSHAAAVSVQTTPQNVPSRSGLPHMHSQLEHRPSQRSSSPVGLAKWFGSDVLQQPLPSMPAKVISVDELEYRQ

Key:
[1] = biological target: T1, FLAG-4E-T (4E-Transporter, full length) (human); experiment: co-IP; anti-FLAG M2 beads on lysates of transfected HEK293T cells, eluted with SDS loading buffer, western blot; lysates with or without RNase A (40 μg/ml); in some panels cells also given siRNA against β-globin, DDX6, UNR or unrip, or co-transfected with HA-DDX6
[2] = biological target: T2, UNR (CSDE1), endogenous (human (endogenous in HEK293T)); experiment: co-IP; endogenous proteins, immunoprecipitation with 4E-T and UNR antibodies (Supplementary Figure S1); RNA-independent
FLAG-DDX6 (human) = FLAG-DDX6 (human) (UniProt P26196); experiment: co-IP; anti-FLAG M2 beads on lysates of transfected HEK293T cells, eluted with SDS loading buffer, western blot; lysates with or without RNase A (40 μg/ml); in some panels cells also given siRNA against β-globin, DDX6, UNR or unrip, or co-transfected with HA-DDX6
FLAG-UNR (human) = biological target: T3, FLAG-UNR (human); experiment: as above
[3] = biological target: T4, FLAG-UNRΔC (UNR1-744) (human); experiment: as above

| Molecule | binding [1] | binding [2] | binding (FLAG-DDX6 (human)) | binding (FLAG-UNR (human)) | binding [3] |
| --- | --- | --- | --- | --- | --- |
| XRN1 exonuclease, endogenous (from UniProt Q8IZH2 1-1706) | no binding | – | – | – | – |
| B1 | – | binds | binds | binds | binds |
